The target of the test is Flag-GLUT1 (glucose transporter 1) (human (HeLa cDNA library)) (UniProt P11166). Nature of the test: co-IP.

The chains behind the UniProt entries cited, without tags or fusion partners.
UniProt P11166: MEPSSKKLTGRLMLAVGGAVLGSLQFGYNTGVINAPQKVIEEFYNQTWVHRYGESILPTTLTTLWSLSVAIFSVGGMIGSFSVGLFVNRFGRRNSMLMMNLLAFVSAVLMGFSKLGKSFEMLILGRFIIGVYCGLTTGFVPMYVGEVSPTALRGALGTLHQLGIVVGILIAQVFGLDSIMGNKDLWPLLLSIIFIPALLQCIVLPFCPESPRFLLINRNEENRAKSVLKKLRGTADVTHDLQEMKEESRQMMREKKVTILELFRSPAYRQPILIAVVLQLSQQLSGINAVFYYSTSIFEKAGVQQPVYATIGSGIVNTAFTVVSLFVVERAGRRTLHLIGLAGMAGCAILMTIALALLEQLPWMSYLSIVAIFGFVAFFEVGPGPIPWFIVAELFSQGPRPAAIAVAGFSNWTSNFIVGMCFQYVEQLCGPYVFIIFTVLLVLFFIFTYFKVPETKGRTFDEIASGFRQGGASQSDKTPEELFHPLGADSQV
UniProt P62820: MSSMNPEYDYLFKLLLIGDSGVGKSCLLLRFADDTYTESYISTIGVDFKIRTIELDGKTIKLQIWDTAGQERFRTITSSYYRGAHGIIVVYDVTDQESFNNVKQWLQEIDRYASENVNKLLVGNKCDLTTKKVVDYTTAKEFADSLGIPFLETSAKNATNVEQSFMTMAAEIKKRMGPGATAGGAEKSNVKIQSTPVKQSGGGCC
UniProt P20339: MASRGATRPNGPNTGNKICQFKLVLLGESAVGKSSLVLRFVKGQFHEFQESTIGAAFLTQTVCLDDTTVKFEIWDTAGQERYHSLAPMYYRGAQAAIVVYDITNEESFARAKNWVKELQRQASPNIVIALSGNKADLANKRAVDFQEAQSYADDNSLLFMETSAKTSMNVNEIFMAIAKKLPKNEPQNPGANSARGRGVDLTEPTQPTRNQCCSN

Experimental findings from publication doi:10.1101/2025.06.10.658782 are described below.

These are yes or no findings as the source states them, for the method shown. Binding seen in cells or lysates may run through a third protein. Some binding calls cover weakened binding; strength is not graded here.

For the substance Rab1A (from UniProt P62820 1-205), the binding entry is reported as “binds”.

Regarding Rab5A (from UniProt P20339 1-215), the binding entry is “binds”.
